Experimental data taken from paper PMC8421366.
Results are given in words; binding and its absence hold for the method and conditions named. In cells and extracts the contact can be indirect. Some binding calls cover weakened binding; strength is not graded here.

Sequences of proteins named here, by UniProt entry; tags and fusion partners are left off.
UniProt Q96SW2: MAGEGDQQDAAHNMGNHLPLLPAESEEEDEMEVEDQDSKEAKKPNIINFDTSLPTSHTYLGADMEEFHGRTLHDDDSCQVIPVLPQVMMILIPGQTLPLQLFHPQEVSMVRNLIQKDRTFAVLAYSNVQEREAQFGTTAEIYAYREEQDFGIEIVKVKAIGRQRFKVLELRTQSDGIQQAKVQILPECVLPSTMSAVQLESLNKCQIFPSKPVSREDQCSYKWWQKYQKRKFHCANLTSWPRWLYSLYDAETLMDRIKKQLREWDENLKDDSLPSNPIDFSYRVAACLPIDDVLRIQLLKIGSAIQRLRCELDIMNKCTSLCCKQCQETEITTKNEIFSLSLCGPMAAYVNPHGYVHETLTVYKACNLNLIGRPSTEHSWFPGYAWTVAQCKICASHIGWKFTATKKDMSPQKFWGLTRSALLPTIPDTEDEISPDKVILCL
UniProt Q8C7D2: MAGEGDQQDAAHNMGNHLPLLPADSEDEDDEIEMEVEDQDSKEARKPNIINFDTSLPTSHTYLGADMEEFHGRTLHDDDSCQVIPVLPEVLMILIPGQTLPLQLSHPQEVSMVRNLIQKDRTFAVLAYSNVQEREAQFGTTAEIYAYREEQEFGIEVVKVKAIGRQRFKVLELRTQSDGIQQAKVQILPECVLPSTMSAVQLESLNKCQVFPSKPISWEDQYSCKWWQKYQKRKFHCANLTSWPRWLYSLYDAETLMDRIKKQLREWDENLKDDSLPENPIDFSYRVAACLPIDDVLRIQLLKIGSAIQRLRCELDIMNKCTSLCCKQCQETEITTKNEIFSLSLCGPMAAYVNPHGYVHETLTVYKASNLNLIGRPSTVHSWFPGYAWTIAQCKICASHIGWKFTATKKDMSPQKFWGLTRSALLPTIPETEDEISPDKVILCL
UniProt O15169: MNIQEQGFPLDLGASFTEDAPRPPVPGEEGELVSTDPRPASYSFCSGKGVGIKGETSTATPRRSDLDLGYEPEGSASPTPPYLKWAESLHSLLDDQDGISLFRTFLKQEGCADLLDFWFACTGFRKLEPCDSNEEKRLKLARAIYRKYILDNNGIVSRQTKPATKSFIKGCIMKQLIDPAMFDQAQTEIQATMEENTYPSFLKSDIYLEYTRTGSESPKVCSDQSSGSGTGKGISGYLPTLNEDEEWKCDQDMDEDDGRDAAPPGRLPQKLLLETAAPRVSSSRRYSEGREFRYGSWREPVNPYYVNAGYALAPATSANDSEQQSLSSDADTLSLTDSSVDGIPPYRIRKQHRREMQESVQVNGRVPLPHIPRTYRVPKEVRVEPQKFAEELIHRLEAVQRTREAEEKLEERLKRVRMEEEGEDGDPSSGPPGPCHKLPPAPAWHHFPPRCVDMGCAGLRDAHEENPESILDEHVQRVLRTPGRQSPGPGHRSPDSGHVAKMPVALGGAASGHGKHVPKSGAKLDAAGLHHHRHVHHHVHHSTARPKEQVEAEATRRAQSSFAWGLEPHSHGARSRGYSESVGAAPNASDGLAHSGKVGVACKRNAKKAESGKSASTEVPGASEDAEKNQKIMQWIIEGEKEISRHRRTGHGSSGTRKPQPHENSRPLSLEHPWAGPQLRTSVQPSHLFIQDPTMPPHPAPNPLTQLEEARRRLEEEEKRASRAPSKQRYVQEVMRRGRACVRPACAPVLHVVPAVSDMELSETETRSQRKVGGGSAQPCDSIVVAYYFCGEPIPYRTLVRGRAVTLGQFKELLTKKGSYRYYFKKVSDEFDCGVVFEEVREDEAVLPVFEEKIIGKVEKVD
UniProt Q8BK63: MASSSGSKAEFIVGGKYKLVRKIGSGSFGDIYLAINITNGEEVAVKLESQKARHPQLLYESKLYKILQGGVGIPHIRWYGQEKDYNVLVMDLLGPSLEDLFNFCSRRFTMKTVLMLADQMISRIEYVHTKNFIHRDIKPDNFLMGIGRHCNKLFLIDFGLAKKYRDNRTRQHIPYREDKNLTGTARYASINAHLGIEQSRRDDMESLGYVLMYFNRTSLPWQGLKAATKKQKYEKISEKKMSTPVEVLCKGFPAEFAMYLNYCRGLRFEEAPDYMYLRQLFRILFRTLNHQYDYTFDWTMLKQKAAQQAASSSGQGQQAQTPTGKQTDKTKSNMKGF

Assays:
[1] = biological target: Cereblon (CRBN), endogenous in HEK cells (human (endogenous in HEK293T)) (UniProt Q96SW2); experiment: co-IP; endogenous proteins from HEK cell extracts, cells treated with PBS or Wnt3a for 4 h with 10 μM MG132; CRBN antibodies or PTEN antibodies overnight at 4 °C, Protein G agarose; immunoblotting
[2] = biological target: CRBN, endogenous in mouse fibroblasts (NIH3T3 cells) (mouse (endogenous in NIH3T3)) (UniProt Q8C7D2); experiment: condition: only cells treated with lenalidomide, without Wnt3a; co-IP; endogenous proteins from NIH3T3 lysates, cells treated with lenalidomide; CRBN antibodies conjugated to agarose beads, overnight at 4 °C; immunoblotting
[3] = biological target: CRBN, endogenous in mouse fibroblasts (NIH3T3 cells) (mouse (endogenous in NIH3T3)) (UniProt Q8C7D2); experiment: co-IP; endogenous proteins from NIH3T3 lysates, cells treated with Wnt3a; CRBN antibodies conjugated to agarose beads, overnight at 4 °C; immunoblotting

| binding [1] | binding [2] | binding [3] | Substance |
| --- | --- | --- | --- |
| binds | – | – | Axin1, endogenous in HEK cells (from UniProt O15169 1-862) |
| – | no binding | binds | CK1α, endogenous in mouse fibroblasts (NIH3T3 cells) (from UniProt Q8BK63 1-337) |
